The other results are listed elsewhere or left out.

Protein sequences, listed by entry. Tags and fused reporters are not part of them. Lines headed by an entry give the natural chain unless they say otherwise; changes in a name come on top.
UniProt Q9H2J4: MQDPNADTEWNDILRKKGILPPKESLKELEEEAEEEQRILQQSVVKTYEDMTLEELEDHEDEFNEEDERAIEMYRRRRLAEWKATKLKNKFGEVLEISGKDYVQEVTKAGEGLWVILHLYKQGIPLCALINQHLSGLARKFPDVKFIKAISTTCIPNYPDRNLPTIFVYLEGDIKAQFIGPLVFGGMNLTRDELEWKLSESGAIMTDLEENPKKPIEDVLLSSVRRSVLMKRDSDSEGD
UniProt H7BZJ3: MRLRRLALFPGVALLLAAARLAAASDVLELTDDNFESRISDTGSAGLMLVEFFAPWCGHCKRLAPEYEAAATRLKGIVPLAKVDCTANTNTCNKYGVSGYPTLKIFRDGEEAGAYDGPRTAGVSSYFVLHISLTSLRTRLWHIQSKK
UniProt O95453: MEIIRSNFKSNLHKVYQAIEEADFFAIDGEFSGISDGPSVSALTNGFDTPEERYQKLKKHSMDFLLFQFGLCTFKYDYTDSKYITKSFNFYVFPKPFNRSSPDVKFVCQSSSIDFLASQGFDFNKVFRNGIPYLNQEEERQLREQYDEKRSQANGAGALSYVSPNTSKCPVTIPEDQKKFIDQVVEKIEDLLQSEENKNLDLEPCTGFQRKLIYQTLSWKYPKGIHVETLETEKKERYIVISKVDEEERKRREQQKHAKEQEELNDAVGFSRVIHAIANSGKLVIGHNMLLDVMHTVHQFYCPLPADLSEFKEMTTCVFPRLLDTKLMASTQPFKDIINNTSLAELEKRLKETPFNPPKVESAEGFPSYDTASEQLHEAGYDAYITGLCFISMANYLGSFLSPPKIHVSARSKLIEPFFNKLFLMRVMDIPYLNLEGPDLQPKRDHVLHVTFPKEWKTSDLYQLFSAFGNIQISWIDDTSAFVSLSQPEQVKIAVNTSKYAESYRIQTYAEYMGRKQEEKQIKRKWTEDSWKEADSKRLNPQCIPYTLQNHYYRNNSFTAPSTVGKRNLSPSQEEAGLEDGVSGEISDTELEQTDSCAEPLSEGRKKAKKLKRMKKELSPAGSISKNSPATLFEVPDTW
UniProt P08237: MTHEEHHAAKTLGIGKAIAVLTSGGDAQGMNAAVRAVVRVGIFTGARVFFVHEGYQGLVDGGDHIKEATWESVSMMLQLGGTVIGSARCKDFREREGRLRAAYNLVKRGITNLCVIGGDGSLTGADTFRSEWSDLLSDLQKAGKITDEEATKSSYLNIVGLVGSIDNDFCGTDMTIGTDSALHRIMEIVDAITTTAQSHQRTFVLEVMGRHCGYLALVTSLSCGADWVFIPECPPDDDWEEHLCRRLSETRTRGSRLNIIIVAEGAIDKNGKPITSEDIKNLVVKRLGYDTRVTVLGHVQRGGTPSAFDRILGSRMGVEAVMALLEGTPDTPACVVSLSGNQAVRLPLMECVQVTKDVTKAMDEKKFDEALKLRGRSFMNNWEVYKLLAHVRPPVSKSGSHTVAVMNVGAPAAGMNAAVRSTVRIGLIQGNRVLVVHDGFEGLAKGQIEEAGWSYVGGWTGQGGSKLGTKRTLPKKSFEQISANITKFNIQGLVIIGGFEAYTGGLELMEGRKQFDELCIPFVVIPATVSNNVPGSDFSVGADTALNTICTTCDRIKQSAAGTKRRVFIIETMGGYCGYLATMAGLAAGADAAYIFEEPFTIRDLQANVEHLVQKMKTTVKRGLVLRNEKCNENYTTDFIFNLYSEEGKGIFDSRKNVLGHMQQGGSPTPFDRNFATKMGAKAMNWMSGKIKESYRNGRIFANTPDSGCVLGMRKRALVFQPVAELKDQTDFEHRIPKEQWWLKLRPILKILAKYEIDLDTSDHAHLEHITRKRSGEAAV
UniProt Q9UKL6: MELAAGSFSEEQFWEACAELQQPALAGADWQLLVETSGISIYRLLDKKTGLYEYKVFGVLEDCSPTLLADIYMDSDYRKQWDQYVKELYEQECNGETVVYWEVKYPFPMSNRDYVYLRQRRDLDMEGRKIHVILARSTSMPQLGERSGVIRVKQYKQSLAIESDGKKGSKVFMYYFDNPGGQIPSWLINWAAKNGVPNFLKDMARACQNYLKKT
UniProt P57721, whole entry, looked up: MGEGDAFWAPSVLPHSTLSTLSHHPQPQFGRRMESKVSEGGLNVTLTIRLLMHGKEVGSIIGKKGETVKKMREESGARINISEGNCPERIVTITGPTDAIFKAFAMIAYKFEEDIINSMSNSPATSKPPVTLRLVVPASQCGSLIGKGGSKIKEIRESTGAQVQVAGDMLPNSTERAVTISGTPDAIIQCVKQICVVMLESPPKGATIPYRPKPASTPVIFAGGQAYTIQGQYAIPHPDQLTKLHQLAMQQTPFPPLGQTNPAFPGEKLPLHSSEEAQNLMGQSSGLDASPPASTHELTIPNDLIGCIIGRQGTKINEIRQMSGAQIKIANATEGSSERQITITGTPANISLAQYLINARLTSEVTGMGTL
UniProt Q8WUM4: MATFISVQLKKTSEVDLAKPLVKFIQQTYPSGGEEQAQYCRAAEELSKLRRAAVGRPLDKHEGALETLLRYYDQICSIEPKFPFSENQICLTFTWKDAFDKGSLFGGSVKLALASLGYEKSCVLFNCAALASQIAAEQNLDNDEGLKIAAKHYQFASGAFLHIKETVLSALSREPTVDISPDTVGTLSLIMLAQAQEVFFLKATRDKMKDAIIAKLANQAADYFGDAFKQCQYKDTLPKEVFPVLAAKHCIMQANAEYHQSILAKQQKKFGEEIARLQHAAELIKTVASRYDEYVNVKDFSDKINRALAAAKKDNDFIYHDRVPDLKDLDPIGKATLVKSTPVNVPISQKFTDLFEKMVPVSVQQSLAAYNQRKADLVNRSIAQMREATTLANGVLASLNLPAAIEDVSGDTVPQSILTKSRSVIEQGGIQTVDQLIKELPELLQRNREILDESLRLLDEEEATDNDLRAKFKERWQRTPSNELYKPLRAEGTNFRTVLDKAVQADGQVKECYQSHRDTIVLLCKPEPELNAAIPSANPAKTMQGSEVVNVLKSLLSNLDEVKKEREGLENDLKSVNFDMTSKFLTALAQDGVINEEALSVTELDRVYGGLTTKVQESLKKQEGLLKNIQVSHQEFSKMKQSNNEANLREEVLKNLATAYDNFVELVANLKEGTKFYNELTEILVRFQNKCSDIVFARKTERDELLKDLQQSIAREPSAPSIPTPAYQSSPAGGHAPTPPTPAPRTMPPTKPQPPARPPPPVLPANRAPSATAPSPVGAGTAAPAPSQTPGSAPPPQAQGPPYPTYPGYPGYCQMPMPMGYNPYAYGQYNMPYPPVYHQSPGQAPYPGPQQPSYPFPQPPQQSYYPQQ
UniProt Q13371: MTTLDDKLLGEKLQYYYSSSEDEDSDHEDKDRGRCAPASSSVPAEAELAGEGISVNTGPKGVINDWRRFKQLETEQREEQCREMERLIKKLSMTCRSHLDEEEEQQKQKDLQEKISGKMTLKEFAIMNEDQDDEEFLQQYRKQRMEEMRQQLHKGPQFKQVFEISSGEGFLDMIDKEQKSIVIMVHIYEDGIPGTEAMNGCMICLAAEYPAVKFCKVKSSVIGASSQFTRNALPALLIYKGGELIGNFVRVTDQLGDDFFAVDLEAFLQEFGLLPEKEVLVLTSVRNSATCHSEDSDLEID
UniProt P13667: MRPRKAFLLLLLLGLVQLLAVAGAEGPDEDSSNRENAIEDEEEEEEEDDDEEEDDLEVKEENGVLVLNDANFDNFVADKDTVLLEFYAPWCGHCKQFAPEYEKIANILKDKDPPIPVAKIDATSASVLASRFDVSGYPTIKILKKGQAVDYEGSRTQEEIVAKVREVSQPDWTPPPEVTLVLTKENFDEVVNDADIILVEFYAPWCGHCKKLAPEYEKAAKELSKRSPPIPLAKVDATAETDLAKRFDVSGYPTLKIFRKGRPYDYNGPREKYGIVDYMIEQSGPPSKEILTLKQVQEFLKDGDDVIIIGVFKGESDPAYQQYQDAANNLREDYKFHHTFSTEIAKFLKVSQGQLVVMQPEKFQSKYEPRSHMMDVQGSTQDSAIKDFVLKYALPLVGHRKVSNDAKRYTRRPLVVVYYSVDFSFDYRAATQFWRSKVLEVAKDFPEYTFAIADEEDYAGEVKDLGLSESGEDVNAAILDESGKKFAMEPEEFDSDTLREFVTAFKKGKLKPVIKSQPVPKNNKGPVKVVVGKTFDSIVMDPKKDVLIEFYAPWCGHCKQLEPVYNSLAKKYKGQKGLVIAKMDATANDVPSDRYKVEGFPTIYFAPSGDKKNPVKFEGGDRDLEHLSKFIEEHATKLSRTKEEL
UniProt Q6L8Q7: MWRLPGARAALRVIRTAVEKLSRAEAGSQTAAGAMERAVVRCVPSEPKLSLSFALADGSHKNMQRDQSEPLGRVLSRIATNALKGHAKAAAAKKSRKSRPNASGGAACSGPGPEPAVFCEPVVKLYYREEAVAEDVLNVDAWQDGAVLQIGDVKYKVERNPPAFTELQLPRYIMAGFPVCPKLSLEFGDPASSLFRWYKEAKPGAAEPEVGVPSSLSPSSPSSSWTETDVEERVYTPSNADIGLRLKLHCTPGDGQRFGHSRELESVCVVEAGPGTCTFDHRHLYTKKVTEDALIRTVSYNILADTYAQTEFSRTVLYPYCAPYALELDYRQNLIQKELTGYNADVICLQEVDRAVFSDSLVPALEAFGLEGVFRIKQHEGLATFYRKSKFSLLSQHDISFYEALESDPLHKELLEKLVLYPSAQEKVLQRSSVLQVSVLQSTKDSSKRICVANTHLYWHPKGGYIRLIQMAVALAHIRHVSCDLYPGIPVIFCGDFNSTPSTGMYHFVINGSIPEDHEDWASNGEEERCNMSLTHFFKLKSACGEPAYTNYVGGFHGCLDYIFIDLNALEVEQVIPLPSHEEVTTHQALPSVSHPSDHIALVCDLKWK
UniProt Q15366, whole entry, looked up: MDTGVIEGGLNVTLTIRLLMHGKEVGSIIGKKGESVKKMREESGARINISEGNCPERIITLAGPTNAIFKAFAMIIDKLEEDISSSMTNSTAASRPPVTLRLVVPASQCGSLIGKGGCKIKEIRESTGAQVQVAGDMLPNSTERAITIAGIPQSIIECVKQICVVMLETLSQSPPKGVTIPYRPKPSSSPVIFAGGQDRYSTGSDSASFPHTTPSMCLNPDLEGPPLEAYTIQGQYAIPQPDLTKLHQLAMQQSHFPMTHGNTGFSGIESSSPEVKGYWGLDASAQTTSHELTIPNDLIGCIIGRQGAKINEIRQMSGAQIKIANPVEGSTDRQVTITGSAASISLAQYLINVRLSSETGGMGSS
UniProt O15212, whole entry, looked up: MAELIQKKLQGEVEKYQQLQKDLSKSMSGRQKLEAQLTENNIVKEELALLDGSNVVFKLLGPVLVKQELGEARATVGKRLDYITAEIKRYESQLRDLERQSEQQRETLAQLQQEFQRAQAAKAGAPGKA
UniProt Q6ZW49, whole entry, looked up: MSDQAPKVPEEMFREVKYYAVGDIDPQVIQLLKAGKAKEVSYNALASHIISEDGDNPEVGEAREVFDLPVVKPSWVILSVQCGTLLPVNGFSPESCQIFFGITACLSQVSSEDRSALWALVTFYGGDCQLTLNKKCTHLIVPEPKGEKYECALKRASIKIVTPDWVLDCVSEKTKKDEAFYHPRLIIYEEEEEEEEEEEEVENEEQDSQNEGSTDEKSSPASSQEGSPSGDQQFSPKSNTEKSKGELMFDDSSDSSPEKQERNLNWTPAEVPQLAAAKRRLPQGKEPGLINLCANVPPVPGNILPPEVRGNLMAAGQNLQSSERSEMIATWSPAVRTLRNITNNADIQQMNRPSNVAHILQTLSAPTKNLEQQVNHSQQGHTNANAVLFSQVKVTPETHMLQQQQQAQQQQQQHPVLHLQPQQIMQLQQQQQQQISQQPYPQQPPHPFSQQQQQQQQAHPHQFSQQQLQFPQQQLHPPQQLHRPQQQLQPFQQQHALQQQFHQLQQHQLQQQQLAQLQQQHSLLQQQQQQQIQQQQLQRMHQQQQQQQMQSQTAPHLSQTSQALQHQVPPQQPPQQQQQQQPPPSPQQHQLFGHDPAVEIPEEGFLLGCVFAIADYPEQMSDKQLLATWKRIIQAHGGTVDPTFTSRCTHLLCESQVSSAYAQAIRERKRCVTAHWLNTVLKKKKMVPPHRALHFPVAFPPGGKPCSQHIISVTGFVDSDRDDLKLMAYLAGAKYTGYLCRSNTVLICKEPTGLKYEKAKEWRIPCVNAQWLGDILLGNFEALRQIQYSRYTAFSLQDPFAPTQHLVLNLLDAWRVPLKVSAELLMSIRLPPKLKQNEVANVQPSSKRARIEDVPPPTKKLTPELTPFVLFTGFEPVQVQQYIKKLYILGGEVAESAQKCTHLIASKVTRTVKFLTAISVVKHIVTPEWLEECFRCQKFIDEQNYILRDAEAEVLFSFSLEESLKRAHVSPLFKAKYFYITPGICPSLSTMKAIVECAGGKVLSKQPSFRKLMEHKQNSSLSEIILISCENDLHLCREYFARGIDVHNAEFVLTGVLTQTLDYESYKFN
UniProt Q9NUG6, whole entry, looked up: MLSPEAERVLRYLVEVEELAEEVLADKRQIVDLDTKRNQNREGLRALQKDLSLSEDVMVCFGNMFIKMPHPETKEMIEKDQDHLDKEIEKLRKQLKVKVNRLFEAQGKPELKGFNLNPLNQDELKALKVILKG

Compound in the assay: CN1CC[C@H](c2c(O)cc(O)c3c(=O)cc(-c4ccccc4Cl)oc23)[C@H](O)C1 [alvocidib]
In words: log2 fold change, soluble protein after heating vs DMSO (PISA); higher = thermal stabilisation; K562 lysate, 10 uM; active = over 0.2 and 3.5 SD of the protein, either way, in both replicates (recomputed). A digest of the protocol: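 K562 pellets were dounce-homogenised in PBS pH 7.4 with 1 mM MgCl2, and the crude extract at 1 mg/mL protein was treated with 10 μM compound for 30 min. Aliquots were heated for 3 min across 48°C-58°C, pooled, and brought to 0.5% NP-40 at 4°C; soluble protein was the supernatant after 21,000xg for 90 min. Soluble protein was quantified by TMTpro 16plex LC-MS/MS with channel sums equalised, and reported as log2 fold change in thermal stability against DMSO controls, with values from duplicates.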
Consider PDCL3 (UniProt Q9H2J4), for which the log2 fold change was inactive: -0.005.

PATL1 (UniProt Q86TB9): the log2 fold change is inactive: 0.002.

Take PDIA3 (UniProt H7BZJ3): the log2 fold change is inactive: -0.055.

For the target PARN (UniProt O95453), the log2 fold change is inactive: 0.

PEX5 isoform 4 (UniProt P50542): the log2 fold change was inactive: 0.017.

On to PFKM isoform 3 (UniProt P08237), for which the log2 fold change is inactive: -0.024.

PCTP (UniProt Q9UKL6): the log2 fold change was inactive: -0.009.

On to PCBP3 (UniProt P57721), for which the log2 fold change is inactive: -0.015.

Regarding PDCD6IP (UniProt Q8WUM4), the log2 fold change is inactive: 0.05.

PDCL (UniProt Q13371): the log2 fold change was inactive: -0.008.

Regarding PFDN4 (UniProt Q9NQP4), the log2 fold change is inactive: -0.006.

With PCBP2 (UniProt H3BRU6), the log2 fold change is inactive: 0.033.

Turning to PDCD6IP isoform 2 (UniProt Q8WUM4), the log2 fold change was inactive: 0.033.

In the case of PDIA4 (UniProt P13667), the log2 fold change was inactive: 0.025.

As for PDE12 (UniProt Q6L8Q7), the log2 fold change is inactive: 0.006.

Turning to PCYT2 isoform 3 (UniProt Q99447), the log2 fold change is inactive: -0.046.

Regarding PDE2A (UniProt O00408), the log2 fold change is inactive: 0.038.

With PCBP2 isoform 8 (UniProt Q15366), the log2 fold change is inactive: -0.01.

For the target PFDN6 (UniProt O15212), the log2 fold change was inactive: 0.071.

Turning to PFDN2 (UniProt Q9UHV9), the log2 fold change was inactive: 0.063.

With PDCD10 (UniProt Q9BUL8), the log2 fold change was inactive: -0.053.

PAXIP1 (UniProt Q6ZW49): the log2 fold change is inactive: -0.05.

As to PDRG1 (UniProt Q9NUG6), the log2 fold change is inactive: 0.001.
